The chains are these.
B1: H/ACA ribonucleoprotein complex subunit DKC1 (protein, UniProt Q9ESX5 1-509)
chain: MADAEVITFPKKHKKKKDRKPLQEDDVAEIQHAEEFLIKPESKVAQLDTSQWPLLLKNFDKLNVRTAHYTPLPCGSNPLKREIGDYIRTGFINLDKPSNPSSHEVVAWIRRILRVEKTGHSGTLDPKVTGCLIVCIERATRLVKSQQSAGKEYVGIVRLHNAIEGGTQLSRALETLTGALFQRPPLIAAVKRQLRVRTIYESKMIEYDPERRLGIFWVSCEAGTYIRTLCVHLGLLLGVGGQMQELRRVRSGVMSEKDHMVTMHDVLDAQWLYDNHKDESYLRRVVYPLEKLLTSHKRLVMKDSAVNAICYGAKIMLPGLLRYEDGIEVNQEIVVITTKGEAICMAIALMTTAVISTCDHGIVAKIKRVIMERDTYPRKWGLGPKASQKKMMIKQGLLDKHGKPTDNTPATWKQDYIDYSDSGKNTLVTEAVQAPQLAAEAVNVIKRKRDSESESDETPTVPQLKEKKKKKDKKPKTVLESGGETGDGDNDTTKKKKKKKVKVVEEMSE
B2: rRNA 2′-O-methyltransferase fibrillarin (protein, UniProt P35550 1-327)
chain: MKPGFSPRGGGFGGRGGFGDRGGRGGGRGGRGGFGGGRGGFGGGGRGRGGGGGGFRGRGGGGGRGGGFQSGGNRGRGGGRGGKRGNQSGKNVMVEPHRHEGVFICRGKEDALVTKNLVPGESVYGEKRVSISEGDDKIEYRAWNPFRSKLAAAILGGVDQIHIKPGAKVLYLGAASGTTVSHVSDIVGPDGLVYAVEFSHRSGRDLINLAKKRTNIIPVIEDARHPHKYRMLIAMVDVIFADVAQPDQTRIVALNAHTFLRNGGHFVISIKANCIDSTASAEAVFASEVKKMQQENMKPQEQLTLEPYERDHAVVVGVYRPPPKVKN
B3: DNA topoisomerase I (enzyme, UniProt Q04750 1-767)
chain: MSGDHLHNDSQIEADFRLNDSHKHKDKHKDREHRHKEHKKDKDKDREKSKHSNSEHKDSEKKHKEKEKTKHKDGSSEKHKDKHKDRDKERRKEEKIRAAGDAKIKKEKENGFSSPPRIKDEPEDDGYFAPPKEDIKPLKRLRDEDDADYKPKKIKTEDIKKEKKRKSEEEEDGKLKKPKNKDKDKKVAEPDNKKKKPKKEEEQKWKWWEEERYPEGIKWKFLEHKGPVFAPPYEPLPESVKFYYDGKVMKLSPKAEEVATFFAKMLDHEYTTKEIFRKNFFKDWRKEMTNDEKNTITNLSKCDFTQMSQYFKAQSEARKQMSKEEKLKIKEENEKLLKEYGFCVMDNHRERIANFKIEPPGLFRGRGNHPKMGMLKRRIMPEDIIINCSKDAKVPSPPPGHKWKEVRHDNKVTWLVSWTENIQGSIKYIMLNPSSRIKGEKDWQKYETARRLKKCVDKIRNQYREDWKSKEMKVRQRAVALYFIDKLALRAGNEKEEGETADTVGCCSLRVEHINLHPELDGQEYVVEFDFPGKDSIRYYNKVPVEKRVFKNLQLFMENKQPEDDLFDRLNTGILNKHLQDLMEGLTAKVFRTYNASITLQQQLKELTAPDENVPAKILSYNRANRAVAILCNHQRAPPKTFEKSMMNLQSKIDAKKDQLADARRDLKSAKADAKVMKDAKTKKVVESKKKAVQRLEEQLMKLEVQATDREENKQIALGTSKLNYLDPRITVAWCKKWGVPIEKIYNKTQREKFAWAIDMTDEDYEF
B4: Heterogeneous nuclear ribonucleoprotein L (protein, UniProt Q8R081 1-586)
chain: MSRRLLPRAEKRRRRLEQRQQPDEQLRRAGAMVKMAAAGGGGGGGRYYGGGNEGGRAPKRLKTENAGDQHGGGGGGGSGAAGGGGGENYDDPHKTPASPVVHIRGLIDGVVEADLVEALQEFGPISYVVVMPKKRQALVEFEDVLGACNAVNYAADNQIYIAGHPAFVNYSTSQKISRPGDSDDSRSVNSVLLFTILNPIYSITTDVLYTICNPCGPVQRIVIFRKNGVQAMVEFDSVQSAQRAKASLNGADIYSGCCTLKIEYAKPTRLNVFKNDQDTWDYTNPNLSGQGDPGSNPNKRQRQPPLLGDHPAEYGGPHGGYHSHYHDEGYGPPPPHYEGRRMGPPVGGHRRGPSRYGPQYGHPPPPPPPPDYGPHADSPVLMVYGLDQSKMNCDRVFNVFCLYGNVEKVKFMKSKPGAAMVEMADGYAVDRAITHLNNNFMFGQKMNVCVSKQPAIMPGQSYGLEDGSCSYKDFSESRNNRFSTPEQAAKNRIQHPSNVLHFFNAPLEVTEENFFEICDELGVKRPTSVKVFSGKSERSSSGLLEWDSKSDALETLGFLNHYQMKNPNGPYPYTLKLCFSTAQHAS
B5: Splicing factor, proline- and glutamine-rich (protein, UniProt Q8VIJ6 1-699)
chain: MSRDRFRSRGGGGGGFHRRGGGGGRGGLHDFRSPPPGMGLNQNRGPMGPGPGGPKPPLPPPPPHQQQQQPPPQQPPPQQPPPHQQPPPHQPPHQQPPPPPQESKPVVPQGPGSAPGVSSAPPPAVSAPPANPPTTGAPPGPGPTPTPPPAVPSTAPGPPPPSTPSSGVSTTPPQTGGPPPPPAGGAGPGPKPGPGPGGPKGGKMPGGPKPGGGPGMGAPGGHPKPPHRGGGEPRGGRQHHAPYHQQHHQGPPPGGPGPRTEEKISDSEGFKANLSLLRRPGEKTYTQRCRLFVGNLPADITEDEFKRLFAKYGEPGEVFINKGKGFGFIKLESRALAEIAKAELDDTPMRGRQLRVRFATHAAALSVRNLSPYVSNELLEEAFSQFGPIERAVVIVDDRGRSTGKGIVEFASKPAARKAFERCSEGVFLLTTTPRPVIVEPLEQLDDEDGLPEKLAQKNPMYQKERETPPRFAQHGTFEYEYSQRWKSLDEMEKQQREQVEKNMKDAKDKLESEMEDAYHEHQANLLRQDLMRRQEELRRMEELHSQEMQKRKEMQLRQEEERRRREEEMMIRQREMEEQMRRQREESYSRMGYMDPRERDMRMGGGGTMNMGDPYGSGGQKFPPLGGGGGIGYEANPGVPPATMSGSMMGSDMRTERFGQGGAGPVGGQGPRGMGPGTPAGYGRGREEYEGPNKKPRF
B6: Non-POU domain-containing octamer-binding protein (protein, UniProt Q99K48 1-473)
chain: MQSNKAFNLEKQNHTPRKHHQHHHQQHHQQQQQQQQQQPPPPIPANGQQASSQNEGLTIDLKNFRKPGEKTFTQRSRLFVGNLPPDITEEEMRKLFEKYGKAGEVFIHKDKGFGFIRLETRTLAEIAKVELDNMPLRGKQLRVRFACHSASLTVRNLPQYVSNELLEEAFSVFGQVERAVVIVDDRGRPSGKGIVEFSGKPAARKALDRCSEGSFLLTTFPRPVTVEPMDQLDDEEGLPEKLVIKNQQFHKEREQPPRFAQPGSFEYEYAMRWKALIEMEKQQQDQVDRNIKEAREKLEMEMEAARHEHQVMLMRQDLMRRQEELRRMEELHNQEVQKRKQLELRQEEERRRREEEMRRQQEEMMRRQQEGFKGTFPDAREQEIRMGQMAMGGAMGINNRGAMPPAPVPPGTPAPPGPATMMPDGTLGLTPPTTERFGQAATMEGIGAIGGTPPAFNRPAPGAEFAPNKRRRY

Sequences of proteins named here, by UniProt entry; tags and fusion partners are left off. A change or cut given only in a name is not applied to a line headed by its entry.
UniProt Q15554: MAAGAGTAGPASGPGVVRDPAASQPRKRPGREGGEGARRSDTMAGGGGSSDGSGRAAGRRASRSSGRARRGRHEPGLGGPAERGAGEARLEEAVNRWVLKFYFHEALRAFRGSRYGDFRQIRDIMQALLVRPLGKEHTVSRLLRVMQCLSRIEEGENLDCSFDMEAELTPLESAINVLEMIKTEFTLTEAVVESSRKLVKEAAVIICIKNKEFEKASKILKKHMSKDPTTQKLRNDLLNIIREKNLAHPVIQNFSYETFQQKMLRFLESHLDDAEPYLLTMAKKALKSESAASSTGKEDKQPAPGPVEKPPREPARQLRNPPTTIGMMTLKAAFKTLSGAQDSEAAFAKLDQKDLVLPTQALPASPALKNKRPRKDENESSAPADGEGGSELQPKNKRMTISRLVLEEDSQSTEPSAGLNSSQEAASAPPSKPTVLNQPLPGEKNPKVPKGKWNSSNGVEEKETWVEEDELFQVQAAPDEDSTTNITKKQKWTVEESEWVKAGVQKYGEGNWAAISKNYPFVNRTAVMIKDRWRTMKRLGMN
UniProt Q99KP6: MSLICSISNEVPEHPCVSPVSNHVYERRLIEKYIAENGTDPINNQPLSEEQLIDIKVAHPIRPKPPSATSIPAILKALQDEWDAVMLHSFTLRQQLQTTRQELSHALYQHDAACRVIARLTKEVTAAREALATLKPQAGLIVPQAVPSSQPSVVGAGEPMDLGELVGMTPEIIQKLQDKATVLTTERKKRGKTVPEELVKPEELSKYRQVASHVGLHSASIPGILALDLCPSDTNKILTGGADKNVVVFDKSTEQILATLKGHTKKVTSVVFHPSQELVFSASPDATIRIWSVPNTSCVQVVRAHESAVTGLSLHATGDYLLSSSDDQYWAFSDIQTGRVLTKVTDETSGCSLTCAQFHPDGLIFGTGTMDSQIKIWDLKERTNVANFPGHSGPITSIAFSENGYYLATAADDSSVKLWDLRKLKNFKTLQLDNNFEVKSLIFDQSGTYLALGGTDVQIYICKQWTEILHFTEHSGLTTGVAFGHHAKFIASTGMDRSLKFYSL
UniProt O88569: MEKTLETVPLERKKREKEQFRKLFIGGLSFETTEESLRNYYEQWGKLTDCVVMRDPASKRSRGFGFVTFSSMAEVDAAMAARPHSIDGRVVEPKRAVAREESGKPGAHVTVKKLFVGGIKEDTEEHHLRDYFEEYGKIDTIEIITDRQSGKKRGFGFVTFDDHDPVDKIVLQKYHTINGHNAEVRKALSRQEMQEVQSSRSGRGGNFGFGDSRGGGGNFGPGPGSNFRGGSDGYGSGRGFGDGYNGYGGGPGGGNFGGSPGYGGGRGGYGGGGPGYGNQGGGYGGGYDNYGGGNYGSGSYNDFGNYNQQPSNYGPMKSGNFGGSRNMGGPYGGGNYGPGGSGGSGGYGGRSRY
UniProt Q921F2: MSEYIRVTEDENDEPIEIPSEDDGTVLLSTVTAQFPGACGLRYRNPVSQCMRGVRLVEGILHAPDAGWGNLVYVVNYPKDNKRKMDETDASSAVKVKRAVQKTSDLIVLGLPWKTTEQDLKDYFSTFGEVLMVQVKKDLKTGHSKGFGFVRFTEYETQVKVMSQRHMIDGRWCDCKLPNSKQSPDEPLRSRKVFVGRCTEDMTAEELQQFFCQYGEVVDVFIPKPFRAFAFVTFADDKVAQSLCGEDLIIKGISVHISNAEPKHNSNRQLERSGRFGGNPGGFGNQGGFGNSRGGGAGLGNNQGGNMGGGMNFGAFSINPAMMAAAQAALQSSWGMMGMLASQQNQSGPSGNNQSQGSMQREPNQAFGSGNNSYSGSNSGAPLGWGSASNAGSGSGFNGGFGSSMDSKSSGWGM
UniProt P62320: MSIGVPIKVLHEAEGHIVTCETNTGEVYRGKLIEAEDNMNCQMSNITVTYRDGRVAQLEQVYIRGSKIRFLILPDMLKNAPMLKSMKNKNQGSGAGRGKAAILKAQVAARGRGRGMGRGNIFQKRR
UniProt Q6PDM2: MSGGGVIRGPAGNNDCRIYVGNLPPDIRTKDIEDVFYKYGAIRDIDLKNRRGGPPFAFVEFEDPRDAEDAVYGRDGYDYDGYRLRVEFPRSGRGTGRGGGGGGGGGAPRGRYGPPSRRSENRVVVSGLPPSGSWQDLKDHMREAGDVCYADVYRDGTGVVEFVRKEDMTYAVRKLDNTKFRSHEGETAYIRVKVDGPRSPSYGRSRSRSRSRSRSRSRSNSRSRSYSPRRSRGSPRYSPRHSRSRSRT
UniProt E9PV04: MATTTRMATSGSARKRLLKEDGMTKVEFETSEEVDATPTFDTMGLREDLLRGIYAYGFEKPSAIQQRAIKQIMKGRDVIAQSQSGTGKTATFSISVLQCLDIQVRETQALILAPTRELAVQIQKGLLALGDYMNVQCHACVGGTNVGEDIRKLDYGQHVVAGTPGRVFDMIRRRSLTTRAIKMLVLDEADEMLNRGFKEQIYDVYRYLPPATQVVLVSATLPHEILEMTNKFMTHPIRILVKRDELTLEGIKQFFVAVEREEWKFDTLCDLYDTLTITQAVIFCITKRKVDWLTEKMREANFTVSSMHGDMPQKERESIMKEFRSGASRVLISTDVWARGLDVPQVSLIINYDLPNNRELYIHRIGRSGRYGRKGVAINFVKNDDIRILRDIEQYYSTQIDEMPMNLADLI
UniProt Q6P4T2: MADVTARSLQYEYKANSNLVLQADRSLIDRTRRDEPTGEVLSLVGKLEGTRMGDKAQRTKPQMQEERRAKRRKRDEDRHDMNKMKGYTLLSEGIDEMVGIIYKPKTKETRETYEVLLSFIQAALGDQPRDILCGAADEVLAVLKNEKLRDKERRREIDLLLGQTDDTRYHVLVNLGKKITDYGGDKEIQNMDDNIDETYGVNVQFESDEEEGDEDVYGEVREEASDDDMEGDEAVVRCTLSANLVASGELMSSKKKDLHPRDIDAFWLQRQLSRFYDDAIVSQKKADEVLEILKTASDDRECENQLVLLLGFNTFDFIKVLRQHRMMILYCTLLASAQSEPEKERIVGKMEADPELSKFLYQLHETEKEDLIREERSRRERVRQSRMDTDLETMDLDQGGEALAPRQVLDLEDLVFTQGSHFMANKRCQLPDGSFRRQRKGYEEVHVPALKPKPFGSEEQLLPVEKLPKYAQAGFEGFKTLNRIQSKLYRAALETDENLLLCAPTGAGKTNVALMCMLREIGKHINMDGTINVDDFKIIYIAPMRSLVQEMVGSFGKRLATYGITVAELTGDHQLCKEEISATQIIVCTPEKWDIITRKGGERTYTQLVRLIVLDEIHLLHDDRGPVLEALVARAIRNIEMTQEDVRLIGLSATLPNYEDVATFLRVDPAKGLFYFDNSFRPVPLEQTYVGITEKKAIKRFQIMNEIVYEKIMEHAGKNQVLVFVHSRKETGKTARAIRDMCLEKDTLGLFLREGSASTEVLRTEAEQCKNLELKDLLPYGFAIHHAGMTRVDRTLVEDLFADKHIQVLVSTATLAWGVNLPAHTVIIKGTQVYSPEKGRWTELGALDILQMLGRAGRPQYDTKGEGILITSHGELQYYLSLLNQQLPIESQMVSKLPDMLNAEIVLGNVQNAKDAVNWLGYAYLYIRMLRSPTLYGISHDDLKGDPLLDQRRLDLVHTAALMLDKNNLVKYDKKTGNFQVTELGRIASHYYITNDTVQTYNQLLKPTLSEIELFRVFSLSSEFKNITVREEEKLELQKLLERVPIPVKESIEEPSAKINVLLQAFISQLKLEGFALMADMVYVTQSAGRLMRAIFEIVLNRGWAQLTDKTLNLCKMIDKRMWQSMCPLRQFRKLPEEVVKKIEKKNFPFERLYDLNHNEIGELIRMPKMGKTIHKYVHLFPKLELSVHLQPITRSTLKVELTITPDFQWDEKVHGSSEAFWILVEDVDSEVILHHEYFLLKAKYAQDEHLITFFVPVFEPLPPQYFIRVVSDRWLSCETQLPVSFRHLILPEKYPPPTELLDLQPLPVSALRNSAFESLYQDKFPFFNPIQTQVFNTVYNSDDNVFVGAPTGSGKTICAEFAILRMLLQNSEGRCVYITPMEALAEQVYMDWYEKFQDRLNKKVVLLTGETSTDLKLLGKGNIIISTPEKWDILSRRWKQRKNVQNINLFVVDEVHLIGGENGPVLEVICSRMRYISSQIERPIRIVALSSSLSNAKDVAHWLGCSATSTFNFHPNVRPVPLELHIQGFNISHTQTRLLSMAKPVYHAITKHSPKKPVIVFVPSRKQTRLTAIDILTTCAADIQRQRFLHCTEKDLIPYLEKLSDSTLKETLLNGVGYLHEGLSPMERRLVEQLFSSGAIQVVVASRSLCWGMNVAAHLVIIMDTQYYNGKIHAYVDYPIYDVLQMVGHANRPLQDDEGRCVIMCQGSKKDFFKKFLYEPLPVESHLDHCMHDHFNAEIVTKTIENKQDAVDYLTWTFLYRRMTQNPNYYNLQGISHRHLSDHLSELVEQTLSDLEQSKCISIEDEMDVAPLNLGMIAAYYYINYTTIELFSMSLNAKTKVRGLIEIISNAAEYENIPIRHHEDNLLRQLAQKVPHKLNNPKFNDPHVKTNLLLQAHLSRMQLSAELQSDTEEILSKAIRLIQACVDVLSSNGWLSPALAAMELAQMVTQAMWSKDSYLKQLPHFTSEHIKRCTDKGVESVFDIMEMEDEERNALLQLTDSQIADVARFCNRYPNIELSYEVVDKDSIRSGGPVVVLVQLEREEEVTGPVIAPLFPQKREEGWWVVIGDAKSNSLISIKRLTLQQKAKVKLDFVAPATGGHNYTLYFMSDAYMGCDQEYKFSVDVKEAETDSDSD
UniProt O70133: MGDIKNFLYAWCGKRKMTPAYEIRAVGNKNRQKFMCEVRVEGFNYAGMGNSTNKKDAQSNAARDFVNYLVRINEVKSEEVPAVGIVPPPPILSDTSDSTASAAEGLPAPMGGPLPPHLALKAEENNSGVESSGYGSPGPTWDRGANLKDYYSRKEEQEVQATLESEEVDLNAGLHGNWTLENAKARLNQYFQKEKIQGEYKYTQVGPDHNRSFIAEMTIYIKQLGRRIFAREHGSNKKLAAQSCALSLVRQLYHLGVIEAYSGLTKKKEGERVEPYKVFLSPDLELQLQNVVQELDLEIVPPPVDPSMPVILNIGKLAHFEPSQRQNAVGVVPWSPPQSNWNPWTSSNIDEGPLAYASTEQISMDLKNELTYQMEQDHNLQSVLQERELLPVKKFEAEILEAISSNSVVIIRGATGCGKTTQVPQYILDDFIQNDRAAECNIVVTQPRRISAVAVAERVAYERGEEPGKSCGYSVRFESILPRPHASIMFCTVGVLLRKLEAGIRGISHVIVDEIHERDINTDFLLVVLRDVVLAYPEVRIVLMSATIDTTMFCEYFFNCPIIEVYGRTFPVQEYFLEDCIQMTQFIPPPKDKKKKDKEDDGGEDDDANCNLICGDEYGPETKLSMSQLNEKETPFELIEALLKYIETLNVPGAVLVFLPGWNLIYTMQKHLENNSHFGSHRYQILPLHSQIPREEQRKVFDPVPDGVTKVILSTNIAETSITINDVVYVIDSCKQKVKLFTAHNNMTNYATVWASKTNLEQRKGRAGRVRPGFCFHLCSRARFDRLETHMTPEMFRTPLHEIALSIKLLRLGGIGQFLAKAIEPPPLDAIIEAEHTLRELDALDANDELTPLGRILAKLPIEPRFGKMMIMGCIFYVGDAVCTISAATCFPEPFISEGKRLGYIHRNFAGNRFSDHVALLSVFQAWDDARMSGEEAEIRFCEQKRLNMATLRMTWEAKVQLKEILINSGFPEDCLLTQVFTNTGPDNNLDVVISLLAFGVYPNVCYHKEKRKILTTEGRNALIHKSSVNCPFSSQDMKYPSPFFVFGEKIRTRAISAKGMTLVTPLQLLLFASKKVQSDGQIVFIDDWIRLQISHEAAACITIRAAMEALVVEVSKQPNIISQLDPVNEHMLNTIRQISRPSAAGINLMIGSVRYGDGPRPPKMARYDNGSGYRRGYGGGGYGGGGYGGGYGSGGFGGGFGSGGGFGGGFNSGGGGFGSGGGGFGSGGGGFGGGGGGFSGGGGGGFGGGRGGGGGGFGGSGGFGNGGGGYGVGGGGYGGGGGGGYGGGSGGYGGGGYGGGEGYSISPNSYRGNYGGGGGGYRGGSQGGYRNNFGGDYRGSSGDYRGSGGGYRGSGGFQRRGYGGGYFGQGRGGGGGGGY
UniProt Q8BG05: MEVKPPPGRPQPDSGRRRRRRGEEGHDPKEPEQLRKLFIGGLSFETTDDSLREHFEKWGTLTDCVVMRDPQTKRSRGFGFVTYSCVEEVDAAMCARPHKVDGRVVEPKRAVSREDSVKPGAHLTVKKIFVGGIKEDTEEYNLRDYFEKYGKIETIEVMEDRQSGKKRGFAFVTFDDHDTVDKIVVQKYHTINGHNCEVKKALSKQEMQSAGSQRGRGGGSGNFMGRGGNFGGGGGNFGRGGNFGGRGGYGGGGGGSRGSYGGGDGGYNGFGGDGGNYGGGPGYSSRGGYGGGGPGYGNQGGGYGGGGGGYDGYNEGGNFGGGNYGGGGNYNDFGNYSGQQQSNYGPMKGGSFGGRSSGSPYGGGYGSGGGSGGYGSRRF

Results are given in words; binding and its absence hold for the method and conditions named. Binding seen in cells or lysates may run through a third protein. These calls come from enrichment with a bait or labelling near it, and not all partners need be listed.

For this test, the target named is recombinant protein corresponding to udTRF2 (the long linker region of TRF2) (UniProt Q15554). Nature of the test: affinity purification with mass spectrometry; anti-udTRF2 antibodies on protein A Sepharose loaded with an excess of recombinant udTRF2, then mouse liver nuclear extract (DNase/RNase treated); bound proteins digested with trypsin and identified by LC-MALDI; controls: antibody only, beads only; only the target purified.
Regarding “Pre-mRNA processing factor 19 (from UniProt Q99KP6 1-504)”, the binding entry is “binds”.

On to “Heterogeneous nuclear ribonucleoprotein K (from UniProt P61979 1-463)”, for which the binding entry is reported as “binds”.

“Heterogeneous nuclear ribonucleoprotein A2/B1 (from UniProt O88569 1-353)”: the binding entry is given as “binds”.

For the molecule “TAR DNA-binding protein 43 (from UniProt Q921F2 1-414)”, the binding entry is listed as “binds”.

As to “Small nuclear ribonucleoprotein Sm D3 (from UniProt P62320 1-126)”, the binding result is reported as “binds”.

For the molecule “Serine/arginine-rich splicing factor 1 (from UniProt Q6PDM2 1-248)”, the binding result was “binds”.

For “Eukaryotic translation initiation factor 4A3-like 1 (from UniProt E9PV04 1-411)”, the binding entry is “binds”.

In the case of “Small nuclear ribonucleoprotein U5 subunit 200 (from UniProt Q6P4T2 1-2136)”, the binding result is reported as “binds”.

Turning to “ATP-dependent RNA helicase A (DHX9) (from UniProt O70133 1-1380)”, the binding result is on record as “binds”.

Turning to “Heterogeneous nuclear ribonucleoprotein A3 (from UniProt Q8BG05 1-379)”, the binding entry is reported as “binds”.

Regarding B1, the binding entry was “binds”.

For B2, the binding entry is listed as “binds”.

As to B3, the binding result is reported as “binds”.

B4: the binding result is reported as “binds”.

For B5, the binding result is reported as “binds”.

Consider B6, for which the binding result is listed as “binds”.

The record behind these values is article PMC8036907.
